According to patent publication US20240025849A1 (MAX DELBRÜCK-CENTRUM FÜR MOLEKULARE MEDIZIN IN DER …, priority 2020, published 2024):
“Also recorded” adds a separate entry of the source.

Experiment: NO quenching control: NO enriched supernatant incubated with compound, Griess assay
Conditions: incubation 24 hours, 0.002 to 20 μM

In the case of `COc1ccc(NC(=O)C(NC(=O)C2CCCN2C(=O)OCc2ccccc2)c2ccc(OC)cc2)cc1` (stereo not shown) [C1], the “NO concentration in NO enriched supernatant (quenching)” value is reported as “no dose dependent reduction; also recorded: Neither C1 nor DMSO altered the NO concentration in the supernatant”.
